For one test, the target named is mysterin-FLAG (human) (UniProt Q63HN8). Briefly: affinity purification with mass spectrometry; mysterin-FLAG transiently overexpressed in HEK293T, precipitated from lysate with anti-FLAG antibody; total co-precipitates digested with Lys-C and analysed by LC-MS/MS without SDS-PAGE; hits reproducible in four trials.
Test [1] deals with T1, USP15L-3FLAG (long isoform of USP15 with three tandem FLAG tags at the C-terminus) (human) (UniProt Q9Y4E8).
T1 sequence: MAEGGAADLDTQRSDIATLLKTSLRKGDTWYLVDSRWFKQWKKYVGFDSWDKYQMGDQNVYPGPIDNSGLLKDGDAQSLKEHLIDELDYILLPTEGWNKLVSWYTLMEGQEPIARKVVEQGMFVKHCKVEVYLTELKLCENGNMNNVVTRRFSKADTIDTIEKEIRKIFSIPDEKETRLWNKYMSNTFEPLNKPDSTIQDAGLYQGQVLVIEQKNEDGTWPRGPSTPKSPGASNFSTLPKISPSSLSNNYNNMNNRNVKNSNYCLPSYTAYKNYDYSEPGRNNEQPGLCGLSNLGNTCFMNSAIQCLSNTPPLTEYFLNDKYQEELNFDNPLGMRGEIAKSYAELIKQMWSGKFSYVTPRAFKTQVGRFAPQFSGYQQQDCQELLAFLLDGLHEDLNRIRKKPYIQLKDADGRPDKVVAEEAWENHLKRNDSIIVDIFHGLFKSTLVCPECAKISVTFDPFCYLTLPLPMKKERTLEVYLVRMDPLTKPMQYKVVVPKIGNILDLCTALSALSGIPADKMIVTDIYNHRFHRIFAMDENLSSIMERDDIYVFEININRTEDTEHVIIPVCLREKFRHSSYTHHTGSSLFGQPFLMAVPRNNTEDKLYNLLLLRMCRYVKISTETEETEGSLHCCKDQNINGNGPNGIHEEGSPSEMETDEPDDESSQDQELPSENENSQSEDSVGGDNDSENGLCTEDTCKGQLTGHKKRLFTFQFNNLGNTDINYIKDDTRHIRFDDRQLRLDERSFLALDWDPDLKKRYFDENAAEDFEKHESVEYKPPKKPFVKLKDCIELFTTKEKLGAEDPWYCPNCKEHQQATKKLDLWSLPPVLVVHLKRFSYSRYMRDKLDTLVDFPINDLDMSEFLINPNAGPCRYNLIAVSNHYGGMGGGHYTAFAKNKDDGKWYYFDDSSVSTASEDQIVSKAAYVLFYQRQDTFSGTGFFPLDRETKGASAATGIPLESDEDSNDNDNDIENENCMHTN
Briefly: affinity purification with mass spectrometry; USP15L-3FLAG or USP15S-3FLAG transiently overexpressed in HEK293T, precipitated with anti-FLAG antibody; complexes reduced, alkylated, digested with Lys-C and trypsin; LC-MS/MS on total co-precipitates; hits reproducible in all four trials.

Sequences of proteins named here, by UniProt entry; tags and fusion partners are left off.
UniProt Q63HN8: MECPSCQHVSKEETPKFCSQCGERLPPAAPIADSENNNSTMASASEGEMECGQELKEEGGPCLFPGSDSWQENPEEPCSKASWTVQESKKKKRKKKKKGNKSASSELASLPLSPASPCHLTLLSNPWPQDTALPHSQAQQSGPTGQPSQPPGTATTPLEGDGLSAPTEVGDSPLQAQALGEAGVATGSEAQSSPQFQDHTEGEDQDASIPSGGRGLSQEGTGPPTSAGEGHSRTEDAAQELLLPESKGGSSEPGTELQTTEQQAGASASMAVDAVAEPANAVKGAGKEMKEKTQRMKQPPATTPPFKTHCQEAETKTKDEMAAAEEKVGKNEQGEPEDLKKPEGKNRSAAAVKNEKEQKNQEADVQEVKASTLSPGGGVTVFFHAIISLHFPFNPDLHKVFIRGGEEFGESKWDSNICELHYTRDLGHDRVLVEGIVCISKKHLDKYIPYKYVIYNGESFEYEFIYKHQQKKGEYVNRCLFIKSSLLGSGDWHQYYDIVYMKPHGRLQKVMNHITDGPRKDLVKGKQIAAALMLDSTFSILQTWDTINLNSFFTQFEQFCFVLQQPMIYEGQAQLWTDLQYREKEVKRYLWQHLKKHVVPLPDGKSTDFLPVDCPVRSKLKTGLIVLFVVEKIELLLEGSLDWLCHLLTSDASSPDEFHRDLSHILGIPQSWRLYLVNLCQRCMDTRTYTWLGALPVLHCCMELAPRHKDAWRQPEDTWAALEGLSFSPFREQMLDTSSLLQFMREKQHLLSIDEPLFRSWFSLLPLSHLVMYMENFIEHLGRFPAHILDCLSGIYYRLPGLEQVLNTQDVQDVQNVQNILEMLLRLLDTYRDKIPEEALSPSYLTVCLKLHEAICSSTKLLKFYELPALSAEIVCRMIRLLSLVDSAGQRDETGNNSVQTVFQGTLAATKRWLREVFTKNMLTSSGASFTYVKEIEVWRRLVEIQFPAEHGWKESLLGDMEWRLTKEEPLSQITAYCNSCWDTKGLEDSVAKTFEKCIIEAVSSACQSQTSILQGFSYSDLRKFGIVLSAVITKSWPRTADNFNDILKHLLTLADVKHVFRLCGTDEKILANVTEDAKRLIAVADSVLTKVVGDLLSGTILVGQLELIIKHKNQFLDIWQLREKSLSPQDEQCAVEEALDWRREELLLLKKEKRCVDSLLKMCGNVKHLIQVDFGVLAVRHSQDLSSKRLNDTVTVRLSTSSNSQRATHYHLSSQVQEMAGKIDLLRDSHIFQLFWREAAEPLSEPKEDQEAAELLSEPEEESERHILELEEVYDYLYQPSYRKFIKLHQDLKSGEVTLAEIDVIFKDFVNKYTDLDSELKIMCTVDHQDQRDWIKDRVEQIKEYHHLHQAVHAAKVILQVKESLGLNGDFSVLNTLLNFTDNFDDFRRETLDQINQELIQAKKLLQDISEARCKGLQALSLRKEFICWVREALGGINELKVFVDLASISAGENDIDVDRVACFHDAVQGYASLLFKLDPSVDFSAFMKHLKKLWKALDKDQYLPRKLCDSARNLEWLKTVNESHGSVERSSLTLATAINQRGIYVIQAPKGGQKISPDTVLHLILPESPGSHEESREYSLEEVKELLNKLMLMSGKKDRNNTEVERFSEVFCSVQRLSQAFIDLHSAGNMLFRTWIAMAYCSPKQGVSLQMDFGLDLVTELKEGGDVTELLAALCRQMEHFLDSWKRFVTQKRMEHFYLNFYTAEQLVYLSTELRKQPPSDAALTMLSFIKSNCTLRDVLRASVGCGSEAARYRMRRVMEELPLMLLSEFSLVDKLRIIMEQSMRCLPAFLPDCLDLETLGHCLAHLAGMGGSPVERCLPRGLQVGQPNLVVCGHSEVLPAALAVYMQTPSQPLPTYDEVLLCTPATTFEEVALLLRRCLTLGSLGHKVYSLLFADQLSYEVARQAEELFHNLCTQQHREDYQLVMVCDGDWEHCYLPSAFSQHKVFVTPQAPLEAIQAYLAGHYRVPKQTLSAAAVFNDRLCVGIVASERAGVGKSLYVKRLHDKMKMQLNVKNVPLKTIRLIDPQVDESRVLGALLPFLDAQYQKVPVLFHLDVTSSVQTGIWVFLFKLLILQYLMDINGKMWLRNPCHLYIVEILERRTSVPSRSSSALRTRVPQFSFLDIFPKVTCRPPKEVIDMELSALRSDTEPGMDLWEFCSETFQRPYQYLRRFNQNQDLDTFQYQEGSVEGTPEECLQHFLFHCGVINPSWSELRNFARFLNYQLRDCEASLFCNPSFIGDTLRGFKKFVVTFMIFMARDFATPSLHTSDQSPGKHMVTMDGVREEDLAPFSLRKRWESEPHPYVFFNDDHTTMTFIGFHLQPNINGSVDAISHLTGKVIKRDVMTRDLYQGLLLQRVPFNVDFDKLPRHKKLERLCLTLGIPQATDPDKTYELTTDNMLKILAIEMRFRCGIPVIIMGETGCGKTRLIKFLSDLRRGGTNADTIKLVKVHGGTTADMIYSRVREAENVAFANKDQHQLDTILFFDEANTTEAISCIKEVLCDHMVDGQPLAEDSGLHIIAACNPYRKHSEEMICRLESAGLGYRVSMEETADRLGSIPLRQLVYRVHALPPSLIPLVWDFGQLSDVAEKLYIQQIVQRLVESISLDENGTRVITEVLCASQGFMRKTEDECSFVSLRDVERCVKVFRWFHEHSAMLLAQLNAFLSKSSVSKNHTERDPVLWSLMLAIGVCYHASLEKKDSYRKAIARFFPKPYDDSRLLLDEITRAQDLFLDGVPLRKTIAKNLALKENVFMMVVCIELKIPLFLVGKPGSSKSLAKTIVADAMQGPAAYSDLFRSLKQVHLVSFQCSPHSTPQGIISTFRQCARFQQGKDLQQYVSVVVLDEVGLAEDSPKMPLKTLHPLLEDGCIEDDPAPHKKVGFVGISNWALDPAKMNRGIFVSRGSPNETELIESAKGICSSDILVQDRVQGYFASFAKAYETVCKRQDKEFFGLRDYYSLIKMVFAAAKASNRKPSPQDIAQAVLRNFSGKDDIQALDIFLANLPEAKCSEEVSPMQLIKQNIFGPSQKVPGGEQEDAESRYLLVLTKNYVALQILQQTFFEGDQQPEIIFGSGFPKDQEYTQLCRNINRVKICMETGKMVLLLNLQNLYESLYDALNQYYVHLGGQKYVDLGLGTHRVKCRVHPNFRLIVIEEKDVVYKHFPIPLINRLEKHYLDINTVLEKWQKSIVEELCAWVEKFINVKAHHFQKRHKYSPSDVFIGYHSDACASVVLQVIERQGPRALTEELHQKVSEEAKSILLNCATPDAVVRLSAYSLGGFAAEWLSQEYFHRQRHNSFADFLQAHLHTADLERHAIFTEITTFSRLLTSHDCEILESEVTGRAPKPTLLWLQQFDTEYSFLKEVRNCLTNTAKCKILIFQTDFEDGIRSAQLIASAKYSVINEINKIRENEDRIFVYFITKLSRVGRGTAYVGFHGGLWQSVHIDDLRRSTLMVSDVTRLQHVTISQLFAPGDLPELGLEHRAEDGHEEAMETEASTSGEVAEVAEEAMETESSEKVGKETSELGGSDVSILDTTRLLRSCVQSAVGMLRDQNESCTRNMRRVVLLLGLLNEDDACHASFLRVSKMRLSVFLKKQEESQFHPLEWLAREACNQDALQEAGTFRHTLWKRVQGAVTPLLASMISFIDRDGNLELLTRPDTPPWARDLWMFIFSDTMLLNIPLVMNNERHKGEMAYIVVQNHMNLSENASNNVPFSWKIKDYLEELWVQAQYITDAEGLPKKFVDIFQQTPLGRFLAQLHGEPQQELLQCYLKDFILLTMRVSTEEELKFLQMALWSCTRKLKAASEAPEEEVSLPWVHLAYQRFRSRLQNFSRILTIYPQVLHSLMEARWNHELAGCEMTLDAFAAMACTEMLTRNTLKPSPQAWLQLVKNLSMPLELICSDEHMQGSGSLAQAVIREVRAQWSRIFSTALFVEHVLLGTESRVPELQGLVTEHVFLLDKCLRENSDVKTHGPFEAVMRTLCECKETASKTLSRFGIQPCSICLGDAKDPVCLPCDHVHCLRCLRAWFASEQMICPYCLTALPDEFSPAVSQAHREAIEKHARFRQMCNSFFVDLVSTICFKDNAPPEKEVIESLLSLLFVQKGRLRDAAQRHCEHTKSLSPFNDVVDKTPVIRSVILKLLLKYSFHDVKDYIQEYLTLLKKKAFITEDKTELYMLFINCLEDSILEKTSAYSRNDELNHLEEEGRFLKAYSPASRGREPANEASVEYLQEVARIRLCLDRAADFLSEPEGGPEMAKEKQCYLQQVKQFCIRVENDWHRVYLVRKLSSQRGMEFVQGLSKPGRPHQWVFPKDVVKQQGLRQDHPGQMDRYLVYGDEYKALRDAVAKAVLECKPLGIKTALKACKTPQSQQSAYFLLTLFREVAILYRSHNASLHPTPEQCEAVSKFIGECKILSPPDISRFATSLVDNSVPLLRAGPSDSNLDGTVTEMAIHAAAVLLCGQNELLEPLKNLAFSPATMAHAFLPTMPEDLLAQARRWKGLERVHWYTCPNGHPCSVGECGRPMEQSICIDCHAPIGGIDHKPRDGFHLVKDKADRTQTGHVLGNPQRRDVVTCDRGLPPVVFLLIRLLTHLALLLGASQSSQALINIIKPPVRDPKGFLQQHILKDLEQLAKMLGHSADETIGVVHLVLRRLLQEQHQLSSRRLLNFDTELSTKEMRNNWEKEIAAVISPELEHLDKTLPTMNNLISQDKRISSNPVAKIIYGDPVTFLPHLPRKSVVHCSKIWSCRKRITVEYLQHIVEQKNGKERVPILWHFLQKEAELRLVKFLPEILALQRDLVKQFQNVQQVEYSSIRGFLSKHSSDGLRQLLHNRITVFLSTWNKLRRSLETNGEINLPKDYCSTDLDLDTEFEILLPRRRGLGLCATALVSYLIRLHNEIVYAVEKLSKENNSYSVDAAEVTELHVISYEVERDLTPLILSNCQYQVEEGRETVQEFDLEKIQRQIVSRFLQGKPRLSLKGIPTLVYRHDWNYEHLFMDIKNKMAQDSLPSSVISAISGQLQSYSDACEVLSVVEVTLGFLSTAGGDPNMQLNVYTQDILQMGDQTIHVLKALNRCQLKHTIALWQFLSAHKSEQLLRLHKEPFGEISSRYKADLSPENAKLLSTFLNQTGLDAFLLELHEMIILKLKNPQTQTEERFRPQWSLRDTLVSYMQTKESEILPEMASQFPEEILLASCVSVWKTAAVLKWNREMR

In test [2] the target is T1, USP15L-3FLAG (long isoform of USP15 with three tandem FLAG tags at the C-terminus) (human). Described as above. This is another data set of the same source.
The target in test [3] is T2, USP15S-3FLAG (short isoform of USP15 with three tandem FLAG tags at the C-terminus) (human) (UniProt Q9Y4E8).
T2 sequence: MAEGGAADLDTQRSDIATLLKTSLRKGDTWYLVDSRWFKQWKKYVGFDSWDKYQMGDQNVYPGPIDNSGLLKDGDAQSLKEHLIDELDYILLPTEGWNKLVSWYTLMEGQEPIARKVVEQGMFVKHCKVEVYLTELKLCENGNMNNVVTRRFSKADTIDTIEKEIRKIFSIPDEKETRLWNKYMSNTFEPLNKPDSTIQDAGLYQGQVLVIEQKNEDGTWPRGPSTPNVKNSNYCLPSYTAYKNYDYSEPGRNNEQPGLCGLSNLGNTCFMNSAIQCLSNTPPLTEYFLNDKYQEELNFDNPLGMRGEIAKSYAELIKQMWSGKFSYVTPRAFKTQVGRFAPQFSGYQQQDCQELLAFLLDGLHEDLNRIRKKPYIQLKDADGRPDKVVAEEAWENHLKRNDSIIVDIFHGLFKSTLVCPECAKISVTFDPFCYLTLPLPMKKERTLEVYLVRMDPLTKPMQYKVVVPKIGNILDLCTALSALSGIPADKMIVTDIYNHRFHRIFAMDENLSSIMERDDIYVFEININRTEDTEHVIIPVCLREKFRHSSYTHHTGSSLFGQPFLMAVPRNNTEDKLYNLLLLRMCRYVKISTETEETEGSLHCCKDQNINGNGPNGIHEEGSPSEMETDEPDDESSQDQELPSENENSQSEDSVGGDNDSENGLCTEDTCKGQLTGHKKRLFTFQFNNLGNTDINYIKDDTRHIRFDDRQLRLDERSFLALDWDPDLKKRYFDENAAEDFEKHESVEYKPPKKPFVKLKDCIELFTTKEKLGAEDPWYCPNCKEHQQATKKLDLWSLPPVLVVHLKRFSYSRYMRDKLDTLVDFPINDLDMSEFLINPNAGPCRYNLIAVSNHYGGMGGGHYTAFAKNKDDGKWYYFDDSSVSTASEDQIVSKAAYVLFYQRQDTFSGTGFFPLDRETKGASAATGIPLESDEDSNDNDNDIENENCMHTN
Described as above.

Where two headings read alike, the source gives them in different places. No constants are given. Whether binding was seen depends on the method and setting. Binding seen in cells or lysates may run through a third protein. A yes stands for co-enrichment or nearness to the bait. Other partners may have been found. For some of these results: Sequences can lack the tags named with a protein.

For the molecule “LYAR, endogenous (from UniProt Q9NX58 1-379)”, in the test with mysterin-FLAG (human), the binding entry is listed as “binds”.

For “mysterin (moyamoya steno-occlusive disease-associated AAA+ and RING finger protein), endogenous (from UniProt Q63HN8 1-5207)”, the binding entry in test [1] is recorded as “binds”.

B1: SART3, endogenous (protein, UniProt Q15020 1-963)
chain: MATAAETSASEPEAESKAGPKADGEEDEVKAARTRRKVLSRAVAAATYKTMGPAWDQQEEGVSESDGDEYAMASSAESSPGEYEWEYDEEEEKNQLEIERLEEQLSINVYDYNCHVDLIRLLRLEGELTKVRMARQKMSEIFPLTEELWLEWLHDEISMAQDGLDREHVYDLFEKAVKDYICPNIWLEYGQYSVGGIGQKGGLEKVRSVFERALSSVGLHMTKGLALWEAYREFESAIVEAARLEKVHSLFRRQLAIPLYDMEATFAEYEEWSEDPIPESVIQNYNKALQQLEKYKPYEEALLQAEAPRLAEYQAYIDFEMKIGDPARIQLIFERALVENCLVPDLWIRYSQYLDRQLKVKDLVLSVHNRAIRNCPWTVALWSRYLLAMERHGVDHQVISVTFEKALNAGFIQATDYVEIWQAYLDYLRRRVDFKQDSSKELEELRAAFTRALEYLKQEVEERFNESGDPSCVIMQNWARIEARLCNNMQKARELWDSIMTRGNAKYANMWLEYYNLERAHGDTQHCRKALHRAVQCTSDYPEHVCEVLLTMERTEGSLEDWDIAVQKTETRLARVNEQRMKAAEKEAALVQQEEEKAEQRKRARAEKKALKKKKKIRGPEKRGADEDDEKEWGDDEEEQPSKRRRVENSIPAAGETQNVEVAAGPAGKCAAVDVEPPSKQKEKAASLKRDMPKVLHDSSKDSITVFVSNLPYSMQEPDTKLRPLFEACGEVVQIRPIFSNRGDFRGYCYVEFKEEKSALQALEMDRKSVEGRPMFVSPCVDKSKNPDFKVFRYSTSLEKHKLFISGLPFSCTKEELEEICKAHGTVKDLRLVTNRAGKPKGLAYVEYENESQASQAVMKMDGMTIKENIIKVAISNPPQRKVPEKPETRKAPGGPMLLPQTYGARGKGRTQLSLLPRALQRPSAAAPQAENGPAAAPAVAAPAATEAPKMSNADFAKLFLRK
On to B1, for which the binding entry in test [2] and in test [3] was “binds” each time.

The values above are taken from PMC5343593.
